The values that follow come from paper PMC3893208.

Protein sequences, listed by entry. Tags and fused reporters are not part of them. Lines headed by an entry give the natural chain unless they say otherwise; changes in a name come on top.
UniProt P0AFC7: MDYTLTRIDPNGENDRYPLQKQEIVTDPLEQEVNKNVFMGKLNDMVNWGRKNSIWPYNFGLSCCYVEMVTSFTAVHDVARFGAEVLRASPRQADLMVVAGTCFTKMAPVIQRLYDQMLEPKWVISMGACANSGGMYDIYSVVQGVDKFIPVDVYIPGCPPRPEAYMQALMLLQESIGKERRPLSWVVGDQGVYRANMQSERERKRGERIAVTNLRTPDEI
UniProt P31473: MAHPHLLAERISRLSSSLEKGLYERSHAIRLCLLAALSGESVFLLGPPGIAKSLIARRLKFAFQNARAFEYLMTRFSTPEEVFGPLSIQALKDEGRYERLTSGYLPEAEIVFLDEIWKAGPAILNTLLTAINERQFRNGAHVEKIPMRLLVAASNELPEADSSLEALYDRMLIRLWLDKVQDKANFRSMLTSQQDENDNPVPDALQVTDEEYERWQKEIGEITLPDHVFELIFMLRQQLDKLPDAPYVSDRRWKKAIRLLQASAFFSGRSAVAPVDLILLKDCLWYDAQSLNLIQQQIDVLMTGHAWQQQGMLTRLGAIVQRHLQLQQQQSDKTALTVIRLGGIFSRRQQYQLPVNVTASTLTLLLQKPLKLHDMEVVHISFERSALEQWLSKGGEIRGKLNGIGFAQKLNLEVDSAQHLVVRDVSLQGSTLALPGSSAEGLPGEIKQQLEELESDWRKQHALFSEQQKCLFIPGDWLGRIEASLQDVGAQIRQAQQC

Test [1] deals with T1, NuoE-SPA (NADH:ubiquinone oxidoreductase I, cytoplasmic subunit E, C-terminal SPA tag) (E. coli (endogenous in DY330)) (UniProt P0AFD1).
T1 sequence: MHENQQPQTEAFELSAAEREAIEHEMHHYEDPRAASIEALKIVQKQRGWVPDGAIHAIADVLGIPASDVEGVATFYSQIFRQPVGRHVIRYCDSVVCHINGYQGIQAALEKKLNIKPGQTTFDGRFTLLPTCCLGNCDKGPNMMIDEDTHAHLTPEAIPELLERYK
Nature of the test: co-IP; aerobically grown DY330 (LB, 30°C overnight); SPA-tagged bait captured from cleared lysate on α-FLAG M2 affinity gel, 4°C 1 h; IP buffer 25 mM TrisHCl pH 7.5, 100 mM KCl, 10 mM MgCl2, 1 mM CaCl2, 0.2 mM EDTA, 1% Triton X-100, 10% glycerol, 0.5 mM DTT; eluted with 3xFLAG peptide; Western blot for RavA and ViaA; repeated in ΔviaA::cat strains for NuoA and NuoF. (In general: A western blot detects proteins with antibodies after separation by electrophoresis.)

Test [2] has as its target T2, NuoA-SPA (NADH:ubiquinone oxidoreductase I, membrane subunit A, C-terminal SPA tag) (E. coli (endogenous in DY330)) (UniProt P0AFC3).
T2 sequence: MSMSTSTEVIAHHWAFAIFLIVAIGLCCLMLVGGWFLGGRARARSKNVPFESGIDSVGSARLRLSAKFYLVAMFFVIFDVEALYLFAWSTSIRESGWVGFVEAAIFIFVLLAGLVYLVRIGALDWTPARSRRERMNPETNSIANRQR
Described as above.

Test [3] has as its target T3, NuoG-SPA (NADH:ubiquinone oxidoreductase I, cytoplasmic subunit G, C-terminal SPA tag) (E. coli (endogenous in DY330)) (UniProt P33602).
T3 sequence: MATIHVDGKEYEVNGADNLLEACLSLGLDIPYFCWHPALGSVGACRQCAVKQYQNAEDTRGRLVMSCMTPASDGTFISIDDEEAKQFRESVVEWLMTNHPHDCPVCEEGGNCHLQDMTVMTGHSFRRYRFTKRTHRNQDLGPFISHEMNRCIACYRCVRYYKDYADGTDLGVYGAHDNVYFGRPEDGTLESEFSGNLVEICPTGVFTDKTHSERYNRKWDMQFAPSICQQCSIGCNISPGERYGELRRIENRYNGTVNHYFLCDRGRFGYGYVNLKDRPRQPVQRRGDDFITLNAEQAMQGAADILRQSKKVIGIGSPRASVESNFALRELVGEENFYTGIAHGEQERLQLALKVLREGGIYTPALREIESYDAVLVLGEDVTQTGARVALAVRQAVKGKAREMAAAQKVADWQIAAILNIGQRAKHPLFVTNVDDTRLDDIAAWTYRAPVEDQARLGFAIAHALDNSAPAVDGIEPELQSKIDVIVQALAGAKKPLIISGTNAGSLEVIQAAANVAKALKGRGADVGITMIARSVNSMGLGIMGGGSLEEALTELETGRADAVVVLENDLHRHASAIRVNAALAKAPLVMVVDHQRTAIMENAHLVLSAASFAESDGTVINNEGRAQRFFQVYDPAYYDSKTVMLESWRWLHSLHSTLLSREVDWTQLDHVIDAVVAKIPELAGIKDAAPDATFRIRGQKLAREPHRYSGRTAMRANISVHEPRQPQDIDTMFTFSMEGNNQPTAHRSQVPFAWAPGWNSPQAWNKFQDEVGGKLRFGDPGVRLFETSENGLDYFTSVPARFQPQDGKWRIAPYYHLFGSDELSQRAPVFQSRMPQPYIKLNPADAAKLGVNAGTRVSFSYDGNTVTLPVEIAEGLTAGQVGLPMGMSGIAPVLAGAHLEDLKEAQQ
Described as above.

Test [4] addresses T4, NuoF-SPA (NADH:ubiquinone oxidoreductase I, cytoplasmic subunit F, C-terminal SPA tag) (E. coli (endogenous in DY330)) (UniProt P31979).
T4 sequence: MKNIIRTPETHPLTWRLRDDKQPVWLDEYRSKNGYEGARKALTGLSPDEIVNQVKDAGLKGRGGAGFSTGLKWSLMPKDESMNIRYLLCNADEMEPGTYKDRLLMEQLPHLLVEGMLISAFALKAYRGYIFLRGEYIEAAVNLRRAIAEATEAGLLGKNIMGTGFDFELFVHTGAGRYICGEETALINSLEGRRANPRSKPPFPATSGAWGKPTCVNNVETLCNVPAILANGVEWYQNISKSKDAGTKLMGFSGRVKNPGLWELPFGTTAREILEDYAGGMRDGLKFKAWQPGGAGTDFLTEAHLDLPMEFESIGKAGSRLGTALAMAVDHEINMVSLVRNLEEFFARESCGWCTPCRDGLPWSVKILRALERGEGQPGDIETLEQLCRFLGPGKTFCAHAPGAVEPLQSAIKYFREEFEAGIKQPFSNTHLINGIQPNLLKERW
The description is as above.

Test [5] has as its target T5, NuoCD-SPA (NADH:ubiquinone oxidoreductase I, fused cytoplasmic subunit CD, C-terminal SPA tag) (E. coli (endogenous in DY330)) (UniProt P33599).
T5 sequence: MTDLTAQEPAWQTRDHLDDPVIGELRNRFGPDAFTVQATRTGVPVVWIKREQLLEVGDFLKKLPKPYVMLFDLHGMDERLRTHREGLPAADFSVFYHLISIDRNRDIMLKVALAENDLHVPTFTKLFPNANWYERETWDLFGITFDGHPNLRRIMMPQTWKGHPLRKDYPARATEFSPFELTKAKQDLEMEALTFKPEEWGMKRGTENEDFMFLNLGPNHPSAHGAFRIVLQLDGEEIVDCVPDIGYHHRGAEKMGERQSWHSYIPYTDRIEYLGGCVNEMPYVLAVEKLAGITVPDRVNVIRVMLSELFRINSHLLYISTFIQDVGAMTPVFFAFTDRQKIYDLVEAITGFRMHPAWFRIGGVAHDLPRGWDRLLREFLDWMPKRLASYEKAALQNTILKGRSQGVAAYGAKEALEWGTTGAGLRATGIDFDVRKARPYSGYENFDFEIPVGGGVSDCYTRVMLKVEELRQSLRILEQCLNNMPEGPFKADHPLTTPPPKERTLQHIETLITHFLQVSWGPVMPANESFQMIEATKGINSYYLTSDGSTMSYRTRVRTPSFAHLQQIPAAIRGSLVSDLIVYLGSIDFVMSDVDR
The description is as above.

The target of test [6] is NuoB-SPA (NADH:ubiquinone oxidoreductase I, cytoplasmic subunit B, C-terminal SPA tag) (E. coli (endogenous in DY330)) (UniProt P0AFC7). Described as above.
For test [7], the target named is T5, NuoCD-SPA (NADH:ubiquinone oxidoreductase I, fused cytoplasmic subunit CD, C-terminal SPA tag) (E. coli (endogenous in DY330)). Nature of the test: co-IP; anaerobically grown DY330 (LB, 30°C overnight); SPA-tagged bait captured from cleared lysate on α-FLAG M2 affinity gel, 4°C 1 h; same IP buffer; eluted with 3xFLAG peptide; Western blot for RavA and ViaA; repeated in a ΔviaA::cat strain for NuoCD.

These are yes or no findings as the source states them, for the method shown. Binding seen in cells or lysates may run through a third protein. Some entries that bind do so weakly or less than the wild type. For some of these results: Where a sequence is shown, tags or fusion partners need not be part of it.

In the case of “RavA (Regulatory ATPase variant A) (from UniProt P31473 1-498)”, the binding entry in test [1] is “binds weakly”.

B1: ViaA (VWA interacting with AAA+ ATPase) (protein, UniProt P0ADN0 1-483)
chain: MLTLDTLNVMLAVSEEGLIEEMIIALLASPQLAVFFEKFPRLKAAITDDVPRWREALRSRLKDARVPPELTEEVMCYQQSQLLSTPQFIVQLPQILDLLHRLNSPWAEQARQLVDANSTITSALHTLFLQRWRLSLIVQATTLNQQLLEEEREQLLSEVQERMTLSGQLEPILADNNTAAGRLWDMSAGQLKRGDYQLIVKYGEFLNEQPELKRLAEQLGRSREAKSIPRNDAQMETFRTMVREPATVPEQVDGLQQSDDILRLLPPELATLGITELEYEFYRRLVEKQLLTYRLHGESWREKVIERPVVHKDYDEQPRGPFIVCVDTSGSMGGFNEQCAKAFCLALMRIALAENRRCYIMLFSTEIVRYELSGPQGIEQAIRFLSQQFRGGTDLASCFRAIMERLQSREWFDADAVVISDFIAQRLPDDVTSKVKELQRVHQHRFHAVAMSAHGKPGIMRIFDHIWRFDTGMRSRLLRRWRR
Regarding B1, the binding result is “binds” in test [2]; “binds” in test [3]; “binds” in test [4]; “binds” in test [5]; “binds weakly” in test [6]; “binds” in test [7].
